Publication doi:10.1101/2021.06.15.448428
These are yes or no findings as the source states them, for the method shown. Binding seen in cells or lysates may run through a third protein. Some results given as binding are weak or reduced against the parent protein; the word gives no strength. For some assays here: Tags and fused reporters may be left off the sequences shown.

Sequences of proteins named here, by UniProt entry; tags and fusion partners are left off. A change or cut given only in a name is not applied to a line headed by its entry.
UniProt P25694, whole entry: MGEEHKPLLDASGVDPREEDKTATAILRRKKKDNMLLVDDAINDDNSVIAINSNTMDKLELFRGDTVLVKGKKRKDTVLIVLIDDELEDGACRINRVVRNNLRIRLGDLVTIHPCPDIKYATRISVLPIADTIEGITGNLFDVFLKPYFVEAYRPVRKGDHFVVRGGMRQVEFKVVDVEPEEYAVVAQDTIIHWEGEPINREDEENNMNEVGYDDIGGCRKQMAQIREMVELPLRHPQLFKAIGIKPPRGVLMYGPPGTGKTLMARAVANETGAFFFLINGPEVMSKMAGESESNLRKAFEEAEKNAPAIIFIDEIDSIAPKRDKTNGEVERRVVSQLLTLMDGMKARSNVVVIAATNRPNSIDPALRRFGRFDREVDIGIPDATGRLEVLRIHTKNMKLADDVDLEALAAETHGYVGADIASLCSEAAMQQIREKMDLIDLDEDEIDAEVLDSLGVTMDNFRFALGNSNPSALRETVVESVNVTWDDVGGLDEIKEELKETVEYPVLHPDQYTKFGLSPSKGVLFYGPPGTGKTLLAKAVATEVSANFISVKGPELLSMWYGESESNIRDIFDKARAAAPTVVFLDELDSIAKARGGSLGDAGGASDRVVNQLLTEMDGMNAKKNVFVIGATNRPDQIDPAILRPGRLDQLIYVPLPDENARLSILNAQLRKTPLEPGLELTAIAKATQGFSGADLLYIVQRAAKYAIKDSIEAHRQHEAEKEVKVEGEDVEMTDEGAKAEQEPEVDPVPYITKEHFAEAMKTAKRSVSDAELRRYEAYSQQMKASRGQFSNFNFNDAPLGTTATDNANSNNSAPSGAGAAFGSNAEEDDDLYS

T1: Dfm1 F58S (S. cerevisiae) (UniProt Q12743)
T1 sequence: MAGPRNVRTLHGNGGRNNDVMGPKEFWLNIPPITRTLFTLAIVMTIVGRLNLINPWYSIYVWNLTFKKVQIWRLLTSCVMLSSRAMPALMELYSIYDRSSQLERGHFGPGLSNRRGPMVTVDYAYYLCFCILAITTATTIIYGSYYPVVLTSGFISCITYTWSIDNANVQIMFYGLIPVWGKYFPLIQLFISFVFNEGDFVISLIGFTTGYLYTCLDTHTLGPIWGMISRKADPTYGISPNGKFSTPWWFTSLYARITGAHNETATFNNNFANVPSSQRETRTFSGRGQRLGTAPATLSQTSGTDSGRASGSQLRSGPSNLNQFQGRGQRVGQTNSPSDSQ

T2: Dfm1 K67E (S. cerevisiae) (UniProt Q12743)
T2 sequence: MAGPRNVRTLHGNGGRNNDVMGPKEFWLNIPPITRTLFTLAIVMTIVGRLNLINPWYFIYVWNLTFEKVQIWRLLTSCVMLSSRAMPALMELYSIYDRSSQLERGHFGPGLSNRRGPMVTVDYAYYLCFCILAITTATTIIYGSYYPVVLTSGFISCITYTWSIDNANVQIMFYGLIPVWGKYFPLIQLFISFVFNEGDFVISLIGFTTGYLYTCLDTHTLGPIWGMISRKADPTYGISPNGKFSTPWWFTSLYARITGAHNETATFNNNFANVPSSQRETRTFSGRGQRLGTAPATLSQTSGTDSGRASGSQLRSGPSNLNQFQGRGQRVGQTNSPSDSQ

T3: Dfm1 L64V (S. cerevisiae) (UniProt Q12743)
T3 sequence: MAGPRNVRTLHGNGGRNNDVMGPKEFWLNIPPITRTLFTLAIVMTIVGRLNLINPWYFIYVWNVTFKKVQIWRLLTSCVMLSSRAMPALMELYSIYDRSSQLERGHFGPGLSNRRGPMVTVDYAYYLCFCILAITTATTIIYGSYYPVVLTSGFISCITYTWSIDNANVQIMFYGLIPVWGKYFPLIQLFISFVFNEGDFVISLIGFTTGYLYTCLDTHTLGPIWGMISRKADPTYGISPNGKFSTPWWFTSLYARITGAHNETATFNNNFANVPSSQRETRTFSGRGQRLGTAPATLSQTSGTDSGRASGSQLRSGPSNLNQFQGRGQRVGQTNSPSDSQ

T4: Dfm1 Q101R (S. cerevisiae) (UniProt Q12743)
T4 sequence: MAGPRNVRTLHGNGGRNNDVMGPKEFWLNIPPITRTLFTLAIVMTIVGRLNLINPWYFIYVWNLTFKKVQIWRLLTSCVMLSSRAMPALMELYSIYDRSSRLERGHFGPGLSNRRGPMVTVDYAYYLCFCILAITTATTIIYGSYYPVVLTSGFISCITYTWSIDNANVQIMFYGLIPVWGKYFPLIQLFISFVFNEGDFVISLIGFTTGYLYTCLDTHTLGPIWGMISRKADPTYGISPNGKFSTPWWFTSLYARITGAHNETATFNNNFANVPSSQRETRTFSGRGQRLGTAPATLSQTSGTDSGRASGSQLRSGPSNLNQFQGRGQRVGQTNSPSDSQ

T5: Dfm1 F107S (S. cerevisiae) (UniProt Q12743)
T5 sequence: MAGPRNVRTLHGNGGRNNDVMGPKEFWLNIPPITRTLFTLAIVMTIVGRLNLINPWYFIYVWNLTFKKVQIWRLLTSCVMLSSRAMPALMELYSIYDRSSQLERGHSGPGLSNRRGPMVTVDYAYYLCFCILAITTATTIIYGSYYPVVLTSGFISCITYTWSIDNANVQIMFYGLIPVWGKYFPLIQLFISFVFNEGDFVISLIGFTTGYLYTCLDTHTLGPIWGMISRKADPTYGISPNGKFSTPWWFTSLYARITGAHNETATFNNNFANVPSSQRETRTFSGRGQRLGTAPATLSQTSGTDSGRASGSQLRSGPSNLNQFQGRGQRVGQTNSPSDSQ

T6: Dfm1-HA (S. cerevisiae) (UniProt Q12743)
T6 sequence: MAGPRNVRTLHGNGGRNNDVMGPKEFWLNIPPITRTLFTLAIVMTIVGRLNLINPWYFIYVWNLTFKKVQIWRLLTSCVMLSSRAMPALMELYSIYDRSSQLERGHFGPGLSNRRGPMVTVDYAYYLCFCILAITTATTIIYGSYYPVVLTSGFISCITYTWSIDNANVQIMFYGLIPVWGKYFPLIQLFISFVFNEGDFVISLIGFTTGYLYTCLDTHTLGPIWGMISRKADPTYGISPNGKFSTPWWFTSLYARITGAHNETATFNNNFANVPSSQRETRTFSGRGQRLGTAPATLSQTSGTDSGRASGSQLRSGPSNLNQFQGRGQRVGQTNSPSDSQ


What was measured:
[1] = molecular target: T1, Dfm1 F58S (S. cerevisiae); test: co-sedimentation
[2] = molecular target: T2, Dfm1 K67E (S. cerevisiae); test: co-sedimentation
[3] = molecular target: T3, Dfm1 L64V (S. cerevisiae); test: co-sedimentation
[4] = molecular target: T4, Dfm1 Q101R (S. cerevisiae); test: co-sedimentation
[5] = molecular target: T5, Dfm1 F107S (S. cerevisiae); test: co-sedimentation
[6] = molecular target: T1, Dfm1 F58S (S. cerevisiae); test: co-IP
[7] = molecular target: T2, Dfm1 K67E (S. cerevisiae); test: co-IP
[8] = molecular target: T3, Dfm1 L64V (S. cerevisiae); test: co-IP
Dfm1-HA (S. cerevisiae) = molecular target: T6, Dfm1-HA (S. cerevisiae); test: co-IP
[9] = molecular target: T4, Dfm1 Q101R (S. cerevisiae); test: co-IP
[10] = molecular target: T5, Dfm1 F107S (S. cerevisiae); test: co-IP

| binding [1] | binding [2] | binding [3] | binding [4] | binding [5] | binding [6] | binding [7] | binding [8] | binding (Dfm1-HA (S. cerevisiae)) | binding [9] | binding [10] | Molecule |
| --- | --- | --- | --- | --- | --- | --- | --- | --- | --- | --- | --- |
| binds | binds | binds | binds | binds |  |  |  |  |  |  | Cdc48 (from UniProt P25694 1-835) |
|  |  |  |  |  | binds | binds | binds | binds | binds | binds | Hrd1 (protein, UniProt Q08109 1-551) MVPENRRKQLAIFVVVTYLLTFYCVYSATKTSVSFLQVTLKLNEGFNLMVLSIFILLNSTLLWQLLTKLLFGELRLIEHEHIFERLPFTIINTLFMSSLFHERYFFTVAFFGLLLLYLKVFHWILKDRLEALLQSINDSTTMKTLIFSRFSFNLVLLAVVDYQIITRCISSIYTNQKSDIESTSLYLIQVMEFTMLLIDLLNLFLQTCLNFWEFYRSQQSLSNENNHIVHGDPTDENTVESDQSQPVLNDDDDDDDDDRQFTGLEGKFMYEKAIDVFTRFLKTALHLSMLIPFRMPMMLLKDVVWDILALYQSGTSLWKIWRNNKQLDDTLVTVTVEQLQNSANDDNICIICMDELIHSPNQQTWKNKNKKPKRLPCGHILHLSCLKNWMERSQTCPICRLPVFDEKGNVVQTTFTSNSDITTQTTVTDSTGIATDQQGFANEVDLLPTRTTSPDIRIVPTQNIDTLAMRTRSTSTPSPTWYTFPLHKTGDNSVGSSRSAYEFLITNSDEKENGIPVKLTIENHEVNSLHGDGGEQIAKKIVIPDKFIQHI |
|  |  |  |  |  | binds | binds | binds | binds | binds | binds | Hrd3 (protein, UniProt Q05787 21-833) DSIADPWPEARHLLNTIAKSRDPMKEAAMEPNADEFVGFYVPMDYSPRNEEKNYQSIWQNEITDSQRHIYELLVQSSEQFNNSEATYTLSQIHLWSQYNFPHNMTLAHKYLEKFNDLTHFTNHSAIFDLAVMYATGGCASGNDQTVIPQDSAKALLYYQRAAQLGNLKAKQVLAYKYYSGFNVPRNFHKSLVLYRDIAEQLRKSYSRDEWDIVFPYWESYNVRISDFESGLLGKGLNSVPSSTVRKRTTRPDIGSPFIAQVNGVQMTLQIEPMGRFAFNGNDGNINGDEDDEDASERRIIRIYYAALNDYKGTYSQSRNCERAKNLLELTYKEFQPHVDNLDPLQVFYYVRCLQLLGHMYFTGEGSSKPNIHMAEEILTTSLEISRRAQGPIGRACIDLGLINQYITNNISQAISYYMKAMKTQANNGIVEFQLSKLATSFPEEKIGDPFNLMETAYLNGFIPAIYEFAVMIESGMNSKSSVENTAYLFKTFVDKNEAIMAPKLRTAFAALINDRSEVALWAYSQLAEQGYETAQVSAAYLMYQLPYEFEDPPRTTDQRKTLAISYYTRAFKQGNIDAGVVAGDIYFQMQNYSKAMALYQGAALKYSIQAIWNLGYMHEHGLGVNRDFHLAKRYYDQVSEHDHRFYLASKLSVLKLHLKSWLTWITREKVNYWKPSSPLNPNEDTQHSKTSWYKQLTKILQRMRHKEDSDKAAEDSHKHRTVVQNGANHRGDDQEEASEILGFQMEDLVTMGCILGIFLLSILMSTLAARRGWNVRFNGAQLNANGNRQQEQQQQQQAQGPPGWDFNVQIFAI |
